From paper PMC4914303
No constants are given. Whether binding was seen depends on the method and setting. In cells and extracts the contact can be indirect. Some results given as binding are weak or reduced against the parent protein; the word gives no strength.

By UniProt entry, the sequences of proteins in these tests, tags left out.
UniProt Q9NS91: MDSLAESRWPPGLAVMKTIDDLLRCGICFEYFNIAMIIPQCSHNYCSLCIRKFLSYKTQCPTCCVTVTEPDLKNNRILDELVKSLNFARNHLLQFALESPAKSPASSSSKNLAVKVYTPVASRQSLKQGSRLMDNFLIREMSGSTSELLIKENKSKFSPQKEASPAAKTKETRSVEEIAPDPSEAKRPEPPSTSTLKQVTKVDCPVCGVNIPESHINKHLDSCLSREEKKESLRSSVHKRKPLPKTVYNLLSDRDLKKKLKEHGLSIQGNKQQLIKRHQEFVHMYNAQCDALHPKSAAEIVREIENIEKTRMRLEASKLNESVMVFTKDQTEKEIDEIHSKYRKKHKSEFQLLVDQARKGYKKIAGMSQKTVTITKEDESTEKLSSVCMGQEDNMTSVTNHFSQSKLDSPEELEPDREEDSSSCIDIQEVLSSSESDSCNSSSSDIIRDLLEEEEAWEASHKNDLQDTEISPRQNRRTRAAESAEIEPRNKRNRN
UniProt Q06609: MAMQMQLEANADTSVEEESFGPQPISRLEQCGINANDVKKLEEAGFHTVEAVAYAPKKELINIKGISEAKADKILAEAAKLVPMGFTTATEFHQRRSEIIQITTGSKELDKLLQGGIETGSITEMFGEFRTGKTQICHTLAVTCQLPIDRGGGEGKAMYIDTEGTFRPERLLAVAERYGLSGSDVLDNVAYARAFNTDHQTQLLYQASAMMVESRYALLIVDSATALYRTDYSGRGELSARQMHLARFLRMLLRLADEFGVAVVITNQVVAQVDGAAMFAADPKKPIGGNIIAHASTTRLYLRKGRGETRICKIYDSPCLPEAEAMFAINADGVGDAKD
UniProt Q9BXW9: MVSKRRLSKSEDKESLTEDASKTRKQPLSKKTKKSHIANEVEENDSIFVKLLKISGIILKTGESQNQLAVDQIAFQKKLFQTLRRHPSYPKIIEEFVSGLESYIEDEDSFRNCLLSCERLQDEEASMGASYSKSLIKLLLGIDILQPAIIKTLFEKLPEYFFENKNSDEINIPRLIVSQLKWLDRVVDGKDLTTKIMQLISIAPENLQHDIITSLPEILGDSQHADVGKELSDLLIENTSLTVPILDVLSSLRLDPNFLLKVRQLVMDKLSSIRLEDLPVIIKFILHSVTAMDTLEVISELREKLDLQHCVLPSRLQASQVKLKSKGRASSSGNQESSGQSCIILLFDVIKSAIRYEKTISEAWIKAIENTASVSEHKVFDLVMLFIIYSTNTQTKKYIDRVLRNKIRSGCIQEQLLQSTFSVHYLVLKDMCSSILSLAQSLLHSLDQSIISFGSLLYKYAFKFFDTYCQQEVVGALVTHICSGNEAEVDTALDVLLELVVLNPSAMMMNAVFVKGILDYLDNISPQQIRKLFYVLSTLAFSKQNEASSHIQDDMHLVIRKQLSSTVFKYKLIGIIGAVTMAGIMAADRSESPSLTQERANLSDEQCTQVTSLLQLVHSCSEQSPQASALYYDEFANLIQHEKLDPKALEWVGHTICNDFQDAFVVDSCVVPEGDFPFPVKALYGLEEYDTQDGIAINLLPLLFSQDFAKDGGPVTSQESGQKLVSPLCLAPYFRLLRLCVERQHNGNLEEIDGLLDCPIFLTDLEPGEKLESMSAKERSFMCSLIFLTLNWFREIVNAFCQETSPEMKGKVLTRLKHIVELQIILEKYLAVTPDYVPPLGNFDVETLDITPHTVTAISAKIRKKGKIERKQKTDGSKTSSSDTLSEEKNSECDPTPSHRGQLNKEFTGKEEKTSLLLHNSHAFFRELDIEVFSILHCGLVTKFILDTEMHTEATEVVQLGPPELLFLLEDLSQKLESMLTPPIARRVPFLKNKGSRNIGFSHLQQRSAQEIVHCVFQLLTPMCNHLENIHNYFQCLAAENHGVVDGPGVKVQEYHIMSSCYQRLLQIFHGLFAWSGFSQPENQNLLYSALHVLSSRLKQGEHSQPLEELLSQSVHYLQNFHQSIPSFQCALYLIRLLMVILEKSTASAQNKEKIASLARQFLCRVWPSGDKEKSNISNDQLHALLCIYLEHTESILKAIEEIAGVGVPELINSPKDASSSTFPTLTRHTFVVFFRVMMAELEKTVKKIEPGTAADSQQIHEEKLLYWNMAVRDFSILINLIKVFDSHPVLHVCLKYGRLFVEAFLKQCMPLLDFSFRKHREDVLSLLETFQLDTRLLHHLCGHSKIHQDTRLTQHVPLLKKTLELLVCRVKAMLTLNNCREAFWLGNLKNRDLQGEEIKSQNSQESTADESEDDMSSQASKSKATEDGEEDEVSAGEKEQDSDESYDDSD
UniProt P51587: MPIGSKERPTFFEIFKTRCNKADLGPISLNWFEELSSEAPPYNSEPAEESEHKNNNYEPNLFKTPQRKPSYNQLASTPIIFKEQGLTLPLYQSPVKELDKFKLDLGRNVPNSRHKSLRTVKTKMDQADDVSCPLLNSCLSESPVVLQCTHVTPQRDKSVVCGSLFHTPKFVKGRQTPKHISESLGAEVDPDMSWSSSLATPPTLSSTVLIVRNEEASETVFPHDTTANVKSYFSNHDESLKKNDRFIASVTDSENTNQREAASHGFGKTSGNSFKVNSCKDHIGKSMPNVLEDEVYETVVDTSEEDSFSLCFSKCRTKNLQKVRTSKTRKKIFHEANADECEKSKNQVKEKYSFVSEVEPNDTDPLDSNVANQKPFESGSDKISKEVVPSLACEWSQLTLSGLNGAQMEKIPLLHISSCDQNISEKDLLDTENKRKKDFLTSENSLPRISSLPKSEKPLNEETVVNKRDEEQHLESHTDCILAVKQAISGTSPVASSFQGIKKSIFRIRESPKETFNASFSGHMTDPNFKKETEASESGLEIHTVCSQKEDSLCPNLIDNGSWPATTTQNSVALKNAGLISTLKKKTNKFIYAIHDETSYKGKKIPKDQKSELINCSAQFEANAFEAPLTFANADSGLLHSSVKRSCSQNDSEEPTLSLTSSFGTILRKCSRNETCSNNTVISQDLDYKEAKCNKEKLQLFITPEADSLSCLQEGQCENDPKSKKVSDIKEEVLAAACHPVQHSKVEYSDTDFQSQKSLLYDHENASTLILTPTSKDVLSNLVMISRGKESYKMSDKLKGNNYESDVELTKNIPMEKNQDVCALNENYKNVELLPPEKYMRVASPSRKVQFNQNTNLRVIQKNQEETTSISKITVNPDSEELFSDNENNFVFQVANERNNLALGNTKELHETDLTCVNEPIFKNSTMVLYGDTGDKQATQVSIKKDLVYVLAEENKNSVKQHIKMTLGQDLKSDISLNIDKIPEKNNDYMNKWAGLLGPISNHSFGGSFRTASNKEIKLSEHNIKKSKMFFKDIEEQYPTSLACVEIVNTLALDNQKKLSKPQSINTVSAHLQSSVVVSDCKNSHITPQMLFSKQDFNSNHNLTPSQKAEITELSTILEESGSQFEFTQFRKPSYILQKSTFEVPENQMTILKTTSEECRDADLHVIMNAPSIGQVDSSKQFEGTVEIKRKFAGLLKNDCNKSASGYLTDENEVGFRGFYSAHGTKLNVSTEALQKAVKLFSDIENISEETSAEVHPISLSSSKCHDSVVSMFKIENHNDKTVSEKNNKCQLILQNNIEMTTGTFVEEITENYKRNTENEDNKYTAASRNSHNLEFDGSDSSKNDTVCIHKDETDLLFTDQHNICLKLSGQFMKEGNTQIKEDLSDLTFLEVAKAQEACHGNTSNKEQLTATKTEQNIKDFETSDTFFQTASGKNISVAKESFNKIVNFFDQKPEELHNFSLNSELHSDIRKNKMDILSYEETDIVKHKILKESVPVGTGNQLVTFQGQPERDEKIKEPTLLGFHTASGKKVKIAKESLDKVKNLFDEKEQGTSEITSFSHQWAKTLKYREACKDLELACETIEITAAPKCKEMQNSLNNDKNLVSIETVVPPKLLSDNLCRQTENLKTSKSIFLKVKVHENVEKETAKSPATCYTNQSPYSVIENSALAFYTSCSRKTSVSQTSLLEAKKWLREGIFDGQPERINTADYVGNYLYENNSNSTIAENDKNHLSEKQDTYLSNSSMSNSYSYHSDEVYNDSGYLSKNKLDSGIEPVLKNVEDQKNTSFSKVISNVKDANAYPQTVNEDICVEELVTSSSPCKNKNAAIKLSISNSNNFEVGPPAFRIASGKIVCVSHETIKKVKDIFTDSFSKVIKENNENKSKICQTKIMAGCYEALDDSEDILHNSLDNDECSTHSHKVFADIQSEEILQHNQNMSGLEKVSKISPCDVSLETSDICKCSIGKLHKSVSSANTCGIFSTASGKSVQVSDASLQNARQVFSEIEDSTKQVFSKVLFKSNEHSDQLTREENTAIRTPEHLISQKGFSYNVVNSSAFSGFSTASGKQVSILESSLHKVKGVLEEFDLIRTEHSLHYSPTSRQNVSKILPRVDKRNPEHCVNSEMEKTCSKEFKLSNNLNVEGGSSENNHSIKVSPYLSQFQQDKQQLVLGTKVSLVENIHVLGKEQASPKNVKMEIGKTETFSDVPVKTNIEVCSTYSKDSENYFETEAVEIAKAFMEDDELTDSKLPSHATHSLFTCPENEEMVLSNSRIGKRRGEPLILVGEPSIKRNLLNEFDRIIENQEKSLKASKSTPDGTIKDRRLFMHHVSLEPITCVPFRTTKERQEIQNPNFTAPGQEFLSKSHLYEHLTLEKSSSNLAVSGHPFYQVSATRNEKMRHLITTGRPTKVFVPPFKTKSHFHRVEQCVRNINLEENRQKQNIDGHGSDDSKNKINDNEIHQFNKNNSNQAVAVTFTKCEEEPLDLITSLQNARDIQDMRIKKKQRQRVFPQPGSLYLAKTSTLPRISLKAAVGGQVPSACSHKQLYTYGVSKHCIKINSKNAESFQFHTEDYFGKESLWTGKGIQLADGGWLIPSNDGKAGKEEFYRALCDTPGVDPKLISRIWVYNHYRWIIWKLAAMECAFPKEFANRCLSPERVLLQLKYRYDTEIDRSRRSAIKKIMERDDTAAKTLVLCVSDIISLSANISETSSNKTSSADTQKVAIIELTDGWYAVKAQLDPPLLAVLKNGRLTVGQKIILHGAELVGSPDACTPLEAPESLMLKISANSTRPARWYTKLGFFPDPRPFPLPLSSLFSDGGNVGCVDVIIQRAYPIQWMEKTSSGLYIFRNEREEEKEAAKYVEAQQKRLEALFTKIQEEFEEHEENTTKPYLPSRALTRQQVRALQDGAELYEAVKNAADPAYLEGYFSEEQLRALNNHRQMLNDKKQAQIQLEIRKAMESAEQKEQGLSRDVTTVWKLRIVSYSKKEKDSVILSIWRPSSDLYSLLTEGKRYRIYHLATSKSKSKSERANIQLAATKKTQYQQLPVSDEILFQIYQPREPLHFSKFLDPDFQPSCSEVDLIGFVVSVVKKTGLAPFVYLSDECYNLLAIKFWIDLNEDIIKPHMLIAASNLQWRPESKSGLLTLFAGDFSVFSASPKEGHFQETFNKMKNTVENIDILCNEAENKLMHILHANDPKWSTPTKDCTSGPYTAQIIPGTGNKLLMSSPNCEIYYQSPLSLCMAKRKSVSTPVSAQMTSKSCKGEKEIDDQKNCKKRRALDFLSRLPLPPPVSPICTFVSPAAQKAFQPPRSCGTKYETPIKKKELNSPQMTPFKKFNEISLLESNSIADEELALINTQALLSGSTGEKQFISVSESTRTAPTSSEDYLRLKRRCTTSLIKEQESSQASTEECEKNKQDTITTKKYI

Experiments:
Experiment in all cases: co-IP; endogenous proteins; H1299 cells treated with 500 nM CPT for 2 hours; RIPA lysate (20 mM Tris-HCl pH 7.4, 150 mM NaCl, 1% NP-40); precipitated overnight with antibodies against Rad51, FANCD2, BRCA2 or Rad18, protein A-Sepharose; each precipitate blotted for the other 3 proteins; IgG as negative control
[1] = biological target: Rad18 (human (endogenous in H1299)) (UniProt Q9NS91)
[2] = biological target: Rad51 (human (endogenous in H1299)) (UniProt Q06609)
[3] = biological target: FANCD2 (human (endogenous in H1299)) (UniProt Q9BXW9)
[4] = biological target: BRCA2 (human (endogenous in H1299)) (UniProt P51587)

Row | Substance | binding [1] | binding [2] | binding [3] | binding [4]
1 | Rad51 (from UniProt Q06609 1-339) | binds |  |  | 
2 | BRCA2 (from UniProt P51587 1-3418) | binds |  |  | 
3 | Rad18 (from UniProt Q9NS91 1-495) |  | binds | binds | binds
4 | FANCD2 (from UniProt Q9BXW9 1-1451) | binds |  |  | 
